“And” between values parts separate entries of the source, which are not always exact repeats. Identical values can stand only once. Among all 390,000 compounds or so, about 4,000 (1%) were called active. The inconclusive results got no clear call from the source; some entries with a clear call stand among them for comparison. Calls follow the shape of the dose curve; as a rule, active = well fitted inhibition curve with a large enough effect; inconclusive = small, poorly fitted or top-dose-only effect, or another doubt; inactive = no such curve, though single readings can be large or run the other way. Potencies beside an inconclusive call are fits to weak or partial responses and may not hold up.
These compounds were tested against DNA polymerase iota (Homo sapiens) (UniProt Q9UNA4) (assay: qHTS for Inhibitors of Polymerase Iota). Details: Pol iota fluorescent replication assay, 10 min; series mostly up to 115 µM; activity, negative = inhibition: at the top concentration.
How it was run: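 Fluorescent replication assay read twice, at 0 min and 10 min after adding 50 nM (final) substrate. Enzyme (10 nM) and compounds were first incubated 15 min at room temperature; enzyme-free buffer wells were negative controls.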
Potency is read from the fitted curve at half-maximal effect.

Chains of the proteins cited; added tags and fusions are not shown. Lines headed by an entry give the natural chain unless they say otherwise; changes in a name come on top.
UniProt Q9UNA4: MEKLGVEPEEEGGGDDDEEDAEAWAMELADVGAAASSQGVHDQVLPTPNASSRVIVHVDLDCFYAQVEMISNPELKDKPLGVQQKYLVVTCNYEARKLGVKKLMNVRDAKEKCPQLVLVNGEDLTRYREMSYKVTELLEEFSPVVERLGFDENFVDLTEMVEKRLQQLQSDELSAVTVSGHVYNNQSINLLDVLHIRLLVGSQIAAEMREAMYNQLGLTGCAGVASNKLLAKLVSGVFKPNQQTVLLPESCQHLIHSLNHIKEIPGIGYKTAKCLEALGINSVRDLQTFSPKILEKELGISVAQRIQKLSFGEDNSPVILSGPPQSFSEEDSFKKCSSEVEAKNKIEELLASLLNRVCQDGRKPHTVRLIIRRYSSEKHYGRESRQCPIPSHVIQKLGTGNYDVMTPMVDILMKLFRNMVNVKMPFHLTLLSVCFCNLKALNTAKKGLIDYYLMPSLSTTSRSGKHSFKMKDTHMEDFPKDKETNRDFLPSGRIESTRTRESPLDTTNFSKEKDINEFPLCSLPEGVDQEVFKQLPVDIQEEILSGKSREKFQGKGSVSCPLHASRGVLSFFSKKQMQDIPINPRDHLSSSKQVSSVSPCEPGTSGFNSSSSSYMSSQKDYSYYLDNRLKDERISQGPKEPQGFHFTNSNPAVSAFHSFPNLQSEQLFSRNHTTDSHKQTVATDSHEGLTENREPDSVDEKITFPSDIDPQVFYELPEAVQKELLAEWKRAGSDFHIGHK

Row | Compound | Potency | activity, negative = inhibition
1 | Cc1cc(=O)oc2cc(NC(=O)C3CC(=O)N(Cc4ccccc4)C3)ccc12 (stereo not drawn) | inconclusive: 39.8 µM [inhibitor, single point] | –
2 | CCOC(=O)c1ccc(NS(=O)(=O)c2cn(C)cn2)cc1 | inconclusive: 28.2 µM [inhibitor, single point] | –
3 | CN(CCO)c1ccc([N+](=O)[O-])cc1C(=O)O | inconclusive: 39.8 µM [inhibitor, single point] | –
4 | O=C(NCc1ccccc1)c1ccc(C(=O)N(C2CCCCC2)C2CCCCC2)cc1 | inconclusive: 44.7 µM [inhibitor, partial curve, poor fit] | –
5 | O=C(OCCOc1ccccc1)c1cccc(S(=O)(=O)N2CCOCC2)c1 | – | inactive: -18.9%
6 | COc1cc(/C=C/c2ccc3cccc([N+](=O)[O-])c3n2)ccc1OCC(=O)O | inconclusive: 44.7 µM [inhibitor, partial curve, poor fit] | –
7 | CC(C)(C)N=C1NN=C(c2cc3ccccc3o2)CS1 | inconclusive: 50.1 µM [inhibitor, partial curve] | –
8 | O=C(/C=C\c1ccco1)NC(=S)Nc1ccccc1O | inconclusive: 20 µM [inhibitor, full curve, poor fit] | –
9 | COCCn1nnnc1C(c1ccccn1)N1CCN(c2cc(C)ccc2C)CC1 (stereo not drawn) | inconclusive: 20 µM [inhibitor, full curve, poor fit] | –
10 | CCOc1ccccc1NC(=O)Cn1nnc(C(=O)NCc2cccs2)c1N | inconclusive: 89.1 µM [inhibitor, single point] and inconclusive: 79.4 µM [inhibitor, partial curve, poor fit] | –
11 | CC1=C(c2ccc(C(C)C)cc2)S(=O)(=O)N=C1N1CCN(c2ccccc2F)CC1 | – | inactive: 5.18%
12 | Cc1ccc2nc(-c3ccc(C)c(NC(=O)COc4ccc(Cl)cc4)c3)oc2c1 | – | inactive: 6.73%
13 | Cc1ccc(C(=O)N2CCN(c3ccc([N+](=O)[O-])cc3)CC2)o1 | – | inactive: 5.55%
14 | Cc1ccc(-c2nc(S(=O)(=O)c3ccc(F)cc3)c(N3CCN(c4ccccc4)CC3)o2)cc1 | inconclusive: 89.1 µM [inhibitor, partial curve, poor fit] | –
15 | O=Nc1ccc(/C=C/c2ccnc3ccccc23)cc1 | – | inactive: 6.15%
16 | O=C(Cn1cc(COc2ccc3ccc(=O)oc3c2)nn1)c1ccc(O)cc1 | inconclusive: 22.4 µM [inhibitor, partial curve, poor fit] | –
17 | Cc1cccc(N2CC(C(=O)Nc3nnc(SCCC4OCCO4)s3)CC2=O)c1 (stereo not drawn) | inconclusive: 14.1 µM [inhibitor, partial curve, poor fit] | –
18 | Cc1cccc(NS(=O)(=O)c2ccc(-c3cnc(C4CC4)o3)cc2)c1C | inconclusive: 0.891 µM [inhibitor, full curve, poor fit] | –
19 | O=C(Nc1ccccn1)c1ccc2c(=O)n3c(nc2c1)CCCCC3 | inconclusive: 15.8 µM [inhibitor, partial curve, poor fit] | –
20 | CSc1ccc(CN(C)Cc2nc3ccccc3c(=O)[nH]2)cc1 | inconclusive: 100 µM [inhibitor, partial curve, poor fit] | –
21 | C=CCn1cc(/C=C2/NC(=O)NC2=O)c2ccccc21 | inconclusive: 39.8 µM [inhibitor, single point] | –

Row | Compound | Potency | activity, negative = inhibition
22 | CCCCn1c(=N)n(CC(=O)c2ccco2)c2ccccc21 | inconclusive: 89.1 µM [inhibitor, single point] | –
23 | O=C(CCl)N1N=C(c2ccco2)CC1c1cccs1 (stereo not drawn) | inconclusive: 50.1 µM [inhibitor, partial curve, poor fit] | –
24 | N#C/C(=N\O)c1nc2ccccc2[nH]1 | – | inactive: 45%
25 | NC(=NCCc1ccccc1)NS(=O)(=O)c1ccccc1 | – | inactive: 1.31%
26 | CCN(c1ccccc1)S(=O)(=O)c1cc(C(=O)OCC(=O)c2c(N)n(C)c(=O)n(C)c2=O)ccc1C | active: 25.1 µM | –
27 | O=C(C[C@@H]1C/C=C\C[C@H](NC(=O)OCC2c3ccccc3-c3ccccc32)C(=O)OC[C@H]2CCCN2C1=O)NCCO | – | inactive: -5.61%
28 | CCc1ccc(/C=C2\Oc3c(ccc(O)c3CN3CCN(C)CC3)C2=O)cc1 | inconclusive: 0.631 µM [inhibitor, full curve, poor fit] | –
29 | Cn1c(SCC(=O)N2CCCCC2)nc2cccnc21 | inconclusive: 2 µM [inhibitor, partial curve, poor fit] | –
30 | COc1ccc(-c2noc(CNC(=O)c3cc(OC)c(OC)c(OC)c3)n2)cc1 | inconclusive: 89.1 µM [inhibitor, partial curve, poor fit] | –
31 | O=C(/C=C/c1ccc([N+](=O)[O-])cc1)c1ccccc(=O)c1O | inconclusive: 15.8 µM [inhibitor, full curve, poor fit] | –
32 | Nc1ccccc1-c1ccccc1N | – | inactive: 4.5%
33 | COc1ccc(C(=O)NCCn2cc(SCC(=O)Nc3ccc4c(c3)OCCO4)c3ccccc32)cc1 | inconclusive: 89.1 µM [inhibitor, single point] | –
34 | COc1ccccc1C(c1c(O)cc(C)n(Cc2ccco2)c1=O)N1CCCCC1 (stereo not drawn) | – | inactive: 3.23%
35 | CC(=O)c1ccc(NC(=O)c2cccc(NC(=O)c3ccccc3)c2)cc1 | inconclusive: 20 µM [inhibitor, partial curve] | –
36 | CCOC(=O)C(=O)C1=CN(Cc2ccccc2)C=C(C#N)C1 | inconclusive: 100 µM [inhibitor, partial curve, poor fit] | –
37 | C=C[C@@H]1c2cccc(C)c2N(S(=O)(=O)c2ccc(C)cc2)[C@H](c2ccccc2)C1(C#N)S(=O)(=O)c1ccccc1 (stereo partly drawn) | inconclusive: 8.91 µM [inhibitor, partial curve, poor fit] | –
38 | O=C(OCC(=O)N1CCCCC1)c1c[nH]c(=O)[nH]c1=O | inconclusive: 31.6 µM [inhibitor, single point] | –
39 | O=C(O)c1ccc(-c2ccco2)n1Cc1ccccc1 | inconclusive: 17.8 µM [inhibitor, single point] | –
40 | Cc1ccc2c(=O)c(C(=O)c3ccc(F)cc3)cn(CC(=O)NCc3ccco3)c2n1 | inconclusive: 56.2 µM [inhibitor, partial curve, poor fit] | –
41 | CC(C)CN1CCC(=O)N([C@H](CSc2ccccc2)Cc2ccccc2)CC1 | inconclusive: 39.8 µM [inhibitor, single point] | –
42 | Cc1ccc(-n2c(O)c(C=Nc3ccccc3-c3n[nH]c(=S)[nH]c3=O)c3ccccc3c2=O)cc1C | inconclusive: 0.708 µM [inhibitor, full curve, poor fit] | –

Row | Compound | Potency | activity, negative = inhibition
43 | COc1cc(CC(=O)OCC(=O)c2ccc3c(c2)OCCO3)cc(OC)c1OC | inconclusive: 8.91 µM [inhibitor, partial curve, poor fit] | –
44 | CC(=O)NC1CC2CCCC(C1)N2C(=O)Nc1cccc(C)c1 (stereo not drawn) | inconclusive: 89.1 µM [inhibitor, single point] | –
45 | O=C(Nc1ccc(S(=O)(=O)NCc2ccco2)cc1)c1ccc(F)cc1 | inconclusive: 56.2 µM [inhibitor, partial curve, poor fit] | –
46 | COc1ccc(Cl)cc1NC(=O)CSc1nc(=O)n(Cc2ccco2)c2c1CCC2 | – | inactive: 31.7%
47 | COc1ccc(C(C)=O)cc1COC(=O)CNC(=O)c1ccc(Cl)cc1 | inconclusive: 2.82 µM [inhibitor, partial curve, poor fit] | –
48 | Cn1cnnc1SCC(=O)N1N=C2/C(=C/c3ccco3)CCCC2C1c1ccco1 (stereo not drawn) | inconclusive: 39.8 µM [inhibitor, single point] | –
49 | Cc1ccc(N2C(=O)CS/C2=C(\C(Cl)=C(Cl)Cl)[N+](=O)[O-])cc1 | inconclusive: 5.62 µM [inhibitor, full curve, poor fit] | –
50 | Cc1[nH]c2ccccc2c1/C=C/c1nc2ccccc2c(=O)[nH]1 | inconclusive: 17.8 µM [inhibitor, full curve] | –
51 | COC(=O)[C@]1(CC(C)C)N[C@H](c2ccc(-c3ccc(F)cc3)cc2)[C@@H]2C(=O)N(C)C(=O)[C@@H]21 | inconclusive: 35.5 µM [inhibitor, single point] | –
52 | Cc1c(Br)c(C(=O)NCc2cc3cc(Cl)ccc3[nH]2)nn1C | inconclusive: 112 µM [inhibitor, partial curve, poor fit] | –
53 | Cc1ccc(-n2ncc3c(Nc4ccc(Oc5ccccc5)cc4)ncnc32)c(C)c1 | – | inactive: 22.8%
54 | Cc1cc(C)cc(NC(=O)CSCc2nc3c(nnn3Cc3ccc(F)cc3)c(=O)[nH]2)c1 | active: 44.7 µM | –
55 | Nc1ccc(O)cc1 | active: 7.08 µM | –
56 | Nc1ncnc2c1ncn2[C@H]1C[C@H](O)[C@@H](COP(=O)(O)O)O1 | inconclusive: 14.1 µM [inhibitor, partial curve, poor fit] | –
57 | Cc1ccc(NC(=O)NC2=NN(c3ccccc3)C(=O)/C2=C2/CCCN2C)cc1 | inconclusive: 25.1 µM [inhibitor, single point] | –
58 | Fc1ccc(-c2noc3ncnc(NCCc4ccc(Cl)cc4)c23)cc1 | inconclusive: 89.1 µM [inhibitor, single point] | –
59 | COc1cccc(N2CC(NC(=O)c3cc4ccccc4o3)CC2=O)c1 (stereo not drawn) | – | inactive: -23.3%
60 | C[C@@H]1CCC(=O)N(CC[C@H](Sc2ccccc2)c2ccccc2)CC1 | inconclusive: 31.6 µM [inhibitor, single point] | –
61 | CCOC(=O)c1sc(NC(=O)C2CC=CCC2C(=O)O)nc1C (stereo not drawn) | inconclusive: 44.7 µM [inhibitor, partial curve, poor fit] | –
62 | CC(C)=C(C#N)c1nc2ccccc2s1 | inconclusive: 31.6 µM [inhibitor, partial curve] | –
63 | O=C1CC(SC(=Nc2ccccc2)Nc2ccccc2)C(=O)N1c1cccc(Cl)c1 (stereo not drawn) | inconclusive: 79.4 µM [inhibitor, partial curve] | –

— PubChem BioAssay AID588590 (National Center for Advancing Translational Sciences (NCATS), 2011)
